The whole screen tested about 330,000 compounds, of which about 7,700 (2.3%) were called active. This list was built around the results that the source calls inconclusive (neither active nor inactive); the mix of calls is not that of the screen. Calls follow the shape of the dose curve; as a rule, active = well fitted inhibition curve with a large enough effect; inconclusive = small, poorly fitted or top-dose-only effect, or effect the other way; inactive = flat fitted curve, though single readings scatter. A potency beside an inconclusive call is a rough fit, not a confirmed value.
Assay: qHTS screen for small molecules that inhibit ELG1-dependent DNA repair in human embryonic kidney (HEK293T) cells expressing luciferase-tagged ELG1; also: nearly all actives have a fitted effect of over 55% in size
Details: HEK293T ELG1-luciferase reporter, luminescence, 16 h, DNA damage induced by 5-fluorouridine; series mostly up to 46.1 µM
Outline: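 DMSO vehicle served as the neutral condition. Each well held 2,000 cells given 5-fluorouridine plus compound; after 16 hr at 37 °C/5% CO2, ONE-Glo was added and luciferase measured 30 min later.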
Potency is read from the fitted curve at half-maximal effect.

Structure (SMILES) | Potency
Cc1cccc(C(=O)N[C@H](C(=O)OCC(=O)NC2CCS(=O)(=O)C2)C(C)C)c1 (stereo partly drawn) | inactive
Cc1noc(C)c1S(=O)(=O)N(C)C[C@H]1Oc2c(NC(=O)Nc3ccc(C(F)(F)F)cc3)cccc2C(=O)N([C@H](C)CO)C[C@@H]1C | inconclusive: 29.1 µM [inhibitor, partial curve, poor fit]
Cc1ccc(NC(=O)Cn2cc(S(=O)(=O)c3ccccc3)c(=O)c3cc(F)ccc32)cc1 | inconclusive: 20.6 µM [activator, single point]
C/C(=N\NC(=O)c1ccc(NS(=O)(=O)c2cccs2)cc1)c1ccc(C(C)(C)C)cc1 | inconclusive: 20.6 µM [activator, partial curve]
O=C(Nc1nc2ccccc2[nH]1)c1cccc([N+](=O)[O-])c1 | inconclusive: 8.2 µM [activator, partial curve]
O=C(CCNC(=O)c1ccc([N+](=O)[O-])cc1)Nc1ccc(Cl)c(S(=O)(=O)N2CCOCC2)c1 | active: 18.3 µM
CN(C)c1nc(SCC(=O)Nc2ccccc2)nc(N2CCOCC2)n1 | inconclusive: 29.1 µM [inhibitor, single point]
CC(NCC(=O)Nc1ccccc1C(=O)NC1CC1)c1cccc(C(F)(F)F)c1 (stereo not drawn) | inconclusive: 35.5 µM [inhibitor, single point]
CCOC(=O)c1sc(-c2cccc([N+](=O)[O-])c2)cc1N | inconclusive: 9.2 µM [activator, partial curve]
N#Cc1cccc(S(=O)(=O)NNC(=O)C23CC4CC(CC(C4)C2)C3)c1 | inactive
CCOC(=O)Cc1csc(NC(=O)Nc2ccc(Cl)cc2)n1 | active: 18.3 µM
CCOC(=O)C(=O)C1=CN(Cc2ccccc2)C=C(C#N)C1 | inactive
Cc1cccc(N2CC(C(=O)Nc3nnc(SCCC4OCCO4)s3)CC2=O)c1 (stereo not drawn) | inactive
CCc1ccc(-c2cc(C)no2)cc1S(=O)(=O)N1CCC(C)CC1 | inconclusive: 32.6 µM [inhibitor, single point]
CCOc1ccc(CC(=O)Nc2c(C(N)=O)oc3ccc(Br)cc23)cc1OCC | inconclusive: 9.2 µM [inhibitor, partial curve, poor fit]
Cc1cc(C)c2ccc3c(C)c(C)nc3c2[nH]1 | inconclusive: 3.26 µM [inhibitor, full curve, poor fit]
Cc1c(C(=O)OCC(=O)N(C)c2ccccc2)oc2ccccc12 | inconclusive: 16.4 µM [activator, partial curve, poor fit]
CC(C)(C)C(=O)[C@@H]1[C@@H]2C(=O)N(c3ccc4c(c3)OCCO4)C(=O)[C@@H]2C2c3ccccc3C=CN21 (stereo partly drawn) | inactive
Nc1c(N(CCC2=CCCCC2)C(=O)c2ccc([N+](=O)[O-])o2)c(=O)[nH]c(=O)n1Cc1ccccc1 | inactive
CCOc1ccccc1NC(=O)c1nc(S(=O)(=O)Cc2cccc(C)c2)ncc1Cl | inconclusive: 29.1 µM [inhibitor, single point]
Cc1nn(-c2ccccc2)c2sc(C(=O)NNC(=O)COc3cccc4ccccc34)cc12 | inactive
CCN1CCN(c2ccc(S(=O)(=O)N3CCCCC3)cc2NC(=O)COc2ccc(Cl)cc2)CC1 | inconclusive: 11.2 µM [inhibitor, single point]

Structure (SMILES) | Potency
CC(=O)N1CCN(c2ccc(NC(=O)c3ccc4c(c3)OCCO4)cc2Cl)CC1 | inconclusive: 29.1 µM [inhibitor, single point]
CCCCCCN1C=CC=C/C1=C/C=C(C#N)C#N | inactive
C=CCn1cc(/C=C2/NC(=O)NC2=O)c2ccccc21 | inconclusive: 29.1 µM [activator, single point]
CSc1ccc(CN(C)Cc2nc3ccccc3c(=O)[nH]2)cc1 | inconclusive: 29.1 µM [inhibitor, single point]
COc1cccc(NC(=O)C2COc3ccccc3O2)c1 (stereo not drawn) | inconclusive: 7.08 µM [activator, partial curve, poor fit]
OC(COCc1ccc2c(c1)OCO2)CN1CCC(Cc2ccccc2)CC1 (stereo not drawn) | inactive
O=C(Nc1ccccn1)c1ccc2c(=O)n3c(nc2c1)CCCCC3 | inconclusive: 1.3 µM [activator, partial curve]
Cc1ccc(-c2cc(C(=O)NCc3ccccn3)no2)cc1 | inconclusive: 16.4 µM [activator, partial curve]
CN(C(=O)C1CCN(S(=O)(=O)c2cccc3nonc23)CC1)C1CCCCC1 | inconclusive: 23.1 µM [inhibitor, single point]
Cc1ccc(-c2nc(CS(=O)CC(=O)NCCN3CCCCCC3)c(C)o2)cc1 (stereo not drawn) | inactive
COc1ccc(OC)c(CCNC(=O)Cn2cccc2C(=O)c2ccccc2C)c1 | inconclusive: 20.6 µM [inhibitor, single point]
CCCC(=O)N1CC(=O)Nc2ccc(Br)cc2C1c1ccc(F)cc1 (stereo not drawn) | inactive
COc1cc(OC)cc(C(=O)NNC(=O)C(=O)Nc2cc(OC)c(Cl)cc2OC)c1 | inactive
CCOc1ccccc1N1CCN(C(=O)Nc2ccc(F)c(Cl)c2)CC1 | inactive
COc1ccc(-c2cc(CCCC(=O)NCCc3cc(OC)ccc3OC)no2)cc1 | inconclusive: 29.1 µM [inhibitor, single point]
Cc1cc(NC(=O)OC2CCCCC2)ccc1[N+](=O)[O-] | inconclusive: 3.66 µM [activator, full curve]
Cc1cc(-c2nc(-c3ccc(C(C)(C)C)cc3)no2)no1 | inconclusive: 4.61 µM [activator, full curve]
CCOC(=O)c1c(C)n(C)c2c(C)cc(O)c(OC(=O)CC)c12 | inactive
CCCCn1c(=N)n(CC(=O)c2ccco2)c2ccccc21 | inconclusive: 16.4 µM [inhibitor, partial curve, poor fit]
COc1ccc(CSc2n[nH]c(C)n2)cc1Br | inconclusive: 20.6 µM [activator, single point]
O=C(CCl)N1N=C(c2ccco2)CC1c1cccs1 (stereo not drawn) | inconclusive: 10.3 µM [inhibitor, partial curve]

In another format: results already given
O=C(Nc1ccccn1)c1ccc2c(=O)n3c(nc2c1)CCCCC3
  Potency: inconclusive: 1.3 µM [activator, partial curve]
CCOC(=O)c1c(C)n(C)c2c(C)cc(O)c(OC(=O)CC)c12
  Potency: inactive
